Reference: the supplement of paper PMC10849652
Some of the results follow.

The chains behind the UniProt entries cited, without tags or fusion partners. Where a name states a change or a piece, a line headed by the entry shows the natural chain unless it says otherwise.
UniProt Q96DT6: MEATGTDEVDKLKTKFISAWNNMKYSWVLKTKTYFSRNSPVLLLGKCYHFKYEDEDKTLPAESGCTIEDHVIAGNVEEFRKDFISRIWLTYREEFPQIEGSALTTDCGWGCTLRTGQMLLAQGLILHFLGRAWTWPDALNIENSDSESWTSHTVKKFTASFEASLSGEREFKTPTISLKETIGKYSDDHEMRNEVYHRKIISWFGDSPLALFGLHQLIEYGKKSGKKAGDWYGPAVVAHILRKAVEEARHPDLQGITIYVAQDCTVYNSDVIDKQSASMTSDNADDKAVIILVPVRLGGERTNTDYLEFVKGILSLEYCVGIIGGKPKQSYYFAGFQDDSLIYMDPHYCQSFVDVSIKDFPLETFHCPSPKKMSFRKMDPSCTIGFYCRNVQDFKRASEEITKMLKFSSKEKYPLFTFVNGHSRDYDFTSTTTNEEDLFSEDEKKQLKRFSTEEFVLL
UniProt O75915: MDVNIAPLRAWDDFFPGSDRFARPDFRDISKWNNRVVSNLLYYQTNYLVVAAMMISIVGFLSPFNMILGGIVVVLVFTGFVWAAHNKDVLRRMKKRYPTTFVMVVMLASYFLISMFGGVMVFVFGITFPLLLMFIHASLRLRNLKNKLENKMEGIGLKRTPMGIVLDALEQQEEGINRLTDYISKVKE
UniProt P56378: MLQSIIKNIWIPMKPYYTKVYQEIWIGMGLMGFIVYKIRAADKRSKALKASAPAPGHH
UniProt Q9UH62: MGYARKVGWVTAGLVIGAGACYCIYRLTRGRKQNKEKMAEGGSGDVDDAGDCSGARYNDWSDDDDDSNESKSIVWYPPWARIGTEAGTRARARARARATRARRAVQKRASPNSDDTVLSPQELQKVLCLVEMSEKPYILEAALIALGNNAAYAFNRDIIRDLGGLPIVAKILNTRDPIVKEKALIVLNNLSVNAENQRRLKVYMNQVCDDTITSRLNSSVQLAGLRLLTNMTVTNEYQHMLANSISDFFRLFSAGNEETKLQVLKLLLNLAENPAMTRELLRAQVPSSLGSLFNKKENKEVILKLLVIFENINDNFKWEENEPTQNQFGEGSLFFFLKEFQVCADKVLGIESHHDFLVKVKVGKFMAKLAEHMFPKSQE
UniProt L0R819, whole entry, looked up: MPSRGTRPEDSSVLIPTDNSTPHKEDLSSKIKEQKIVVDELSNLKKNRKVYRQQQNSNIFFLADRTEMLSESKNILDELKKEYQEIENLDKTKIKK
UniProt O94817, whole entry, looked up: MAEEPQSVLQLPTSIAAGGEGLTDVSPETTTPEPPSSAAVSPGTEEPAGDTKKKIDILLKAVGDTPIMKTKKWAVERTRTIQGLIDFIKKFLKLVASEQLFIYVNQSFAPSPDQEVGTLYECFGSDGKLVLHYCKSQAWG
UniProt P54259: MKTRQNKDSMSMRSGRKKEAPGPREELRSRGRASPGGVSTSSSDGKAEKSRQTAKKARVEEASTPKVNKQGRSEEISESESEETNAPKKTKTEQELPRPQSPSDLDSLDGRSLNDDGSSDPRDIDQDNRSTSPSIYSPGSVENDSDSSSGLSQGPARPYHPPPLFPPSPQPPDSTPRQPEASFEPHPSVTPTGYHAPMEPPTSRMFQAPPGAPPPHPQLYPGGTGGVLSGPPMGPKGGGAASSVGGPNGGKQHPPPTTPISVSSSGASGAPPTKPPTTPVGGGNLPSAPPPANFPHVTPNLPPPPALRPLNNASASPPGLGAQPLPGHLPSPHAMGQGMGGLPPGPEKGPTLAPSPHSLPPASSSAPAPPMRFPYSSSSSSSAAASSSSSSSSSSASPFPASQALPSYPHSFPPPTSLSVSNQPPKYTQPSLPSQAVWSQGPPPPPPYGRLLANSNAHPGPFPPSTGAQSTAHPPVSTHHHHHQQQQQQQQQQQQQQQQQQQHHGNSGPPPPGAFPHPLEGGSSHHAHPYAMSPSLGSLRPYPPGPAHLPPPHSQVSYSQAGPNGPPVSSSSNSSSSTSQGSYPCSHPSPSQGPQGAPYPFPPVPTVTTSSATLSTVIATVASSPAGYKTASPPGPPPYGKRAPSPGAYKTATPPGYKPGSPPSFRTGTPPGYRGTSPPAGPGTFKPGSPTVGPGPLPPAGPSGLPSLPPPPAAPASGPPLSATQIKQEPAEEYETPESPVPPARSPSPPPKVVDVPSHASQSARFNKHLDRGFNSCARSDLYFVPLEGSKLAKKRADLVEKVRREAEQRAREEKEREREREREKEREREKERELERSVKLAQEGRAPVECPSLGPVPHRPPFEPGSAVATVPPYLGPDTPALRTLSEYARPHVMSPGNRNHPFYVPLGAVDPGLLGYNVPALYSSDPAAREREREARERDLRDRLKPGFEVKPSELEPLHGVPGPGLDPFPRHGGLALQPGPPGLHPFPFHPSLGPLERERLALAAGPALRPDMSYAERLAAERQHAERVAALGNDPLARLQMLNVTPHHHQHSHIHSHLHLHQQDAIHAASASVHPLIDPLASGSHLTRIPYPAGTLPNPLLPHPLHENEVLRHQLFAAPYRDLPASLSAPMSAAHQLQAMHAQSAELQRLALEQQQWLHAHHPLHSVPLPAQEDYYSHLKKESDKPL
UniProt P56381: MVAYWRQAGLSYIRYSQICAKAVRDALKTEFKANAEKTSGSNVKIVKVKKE
UniProt Q8IZT6: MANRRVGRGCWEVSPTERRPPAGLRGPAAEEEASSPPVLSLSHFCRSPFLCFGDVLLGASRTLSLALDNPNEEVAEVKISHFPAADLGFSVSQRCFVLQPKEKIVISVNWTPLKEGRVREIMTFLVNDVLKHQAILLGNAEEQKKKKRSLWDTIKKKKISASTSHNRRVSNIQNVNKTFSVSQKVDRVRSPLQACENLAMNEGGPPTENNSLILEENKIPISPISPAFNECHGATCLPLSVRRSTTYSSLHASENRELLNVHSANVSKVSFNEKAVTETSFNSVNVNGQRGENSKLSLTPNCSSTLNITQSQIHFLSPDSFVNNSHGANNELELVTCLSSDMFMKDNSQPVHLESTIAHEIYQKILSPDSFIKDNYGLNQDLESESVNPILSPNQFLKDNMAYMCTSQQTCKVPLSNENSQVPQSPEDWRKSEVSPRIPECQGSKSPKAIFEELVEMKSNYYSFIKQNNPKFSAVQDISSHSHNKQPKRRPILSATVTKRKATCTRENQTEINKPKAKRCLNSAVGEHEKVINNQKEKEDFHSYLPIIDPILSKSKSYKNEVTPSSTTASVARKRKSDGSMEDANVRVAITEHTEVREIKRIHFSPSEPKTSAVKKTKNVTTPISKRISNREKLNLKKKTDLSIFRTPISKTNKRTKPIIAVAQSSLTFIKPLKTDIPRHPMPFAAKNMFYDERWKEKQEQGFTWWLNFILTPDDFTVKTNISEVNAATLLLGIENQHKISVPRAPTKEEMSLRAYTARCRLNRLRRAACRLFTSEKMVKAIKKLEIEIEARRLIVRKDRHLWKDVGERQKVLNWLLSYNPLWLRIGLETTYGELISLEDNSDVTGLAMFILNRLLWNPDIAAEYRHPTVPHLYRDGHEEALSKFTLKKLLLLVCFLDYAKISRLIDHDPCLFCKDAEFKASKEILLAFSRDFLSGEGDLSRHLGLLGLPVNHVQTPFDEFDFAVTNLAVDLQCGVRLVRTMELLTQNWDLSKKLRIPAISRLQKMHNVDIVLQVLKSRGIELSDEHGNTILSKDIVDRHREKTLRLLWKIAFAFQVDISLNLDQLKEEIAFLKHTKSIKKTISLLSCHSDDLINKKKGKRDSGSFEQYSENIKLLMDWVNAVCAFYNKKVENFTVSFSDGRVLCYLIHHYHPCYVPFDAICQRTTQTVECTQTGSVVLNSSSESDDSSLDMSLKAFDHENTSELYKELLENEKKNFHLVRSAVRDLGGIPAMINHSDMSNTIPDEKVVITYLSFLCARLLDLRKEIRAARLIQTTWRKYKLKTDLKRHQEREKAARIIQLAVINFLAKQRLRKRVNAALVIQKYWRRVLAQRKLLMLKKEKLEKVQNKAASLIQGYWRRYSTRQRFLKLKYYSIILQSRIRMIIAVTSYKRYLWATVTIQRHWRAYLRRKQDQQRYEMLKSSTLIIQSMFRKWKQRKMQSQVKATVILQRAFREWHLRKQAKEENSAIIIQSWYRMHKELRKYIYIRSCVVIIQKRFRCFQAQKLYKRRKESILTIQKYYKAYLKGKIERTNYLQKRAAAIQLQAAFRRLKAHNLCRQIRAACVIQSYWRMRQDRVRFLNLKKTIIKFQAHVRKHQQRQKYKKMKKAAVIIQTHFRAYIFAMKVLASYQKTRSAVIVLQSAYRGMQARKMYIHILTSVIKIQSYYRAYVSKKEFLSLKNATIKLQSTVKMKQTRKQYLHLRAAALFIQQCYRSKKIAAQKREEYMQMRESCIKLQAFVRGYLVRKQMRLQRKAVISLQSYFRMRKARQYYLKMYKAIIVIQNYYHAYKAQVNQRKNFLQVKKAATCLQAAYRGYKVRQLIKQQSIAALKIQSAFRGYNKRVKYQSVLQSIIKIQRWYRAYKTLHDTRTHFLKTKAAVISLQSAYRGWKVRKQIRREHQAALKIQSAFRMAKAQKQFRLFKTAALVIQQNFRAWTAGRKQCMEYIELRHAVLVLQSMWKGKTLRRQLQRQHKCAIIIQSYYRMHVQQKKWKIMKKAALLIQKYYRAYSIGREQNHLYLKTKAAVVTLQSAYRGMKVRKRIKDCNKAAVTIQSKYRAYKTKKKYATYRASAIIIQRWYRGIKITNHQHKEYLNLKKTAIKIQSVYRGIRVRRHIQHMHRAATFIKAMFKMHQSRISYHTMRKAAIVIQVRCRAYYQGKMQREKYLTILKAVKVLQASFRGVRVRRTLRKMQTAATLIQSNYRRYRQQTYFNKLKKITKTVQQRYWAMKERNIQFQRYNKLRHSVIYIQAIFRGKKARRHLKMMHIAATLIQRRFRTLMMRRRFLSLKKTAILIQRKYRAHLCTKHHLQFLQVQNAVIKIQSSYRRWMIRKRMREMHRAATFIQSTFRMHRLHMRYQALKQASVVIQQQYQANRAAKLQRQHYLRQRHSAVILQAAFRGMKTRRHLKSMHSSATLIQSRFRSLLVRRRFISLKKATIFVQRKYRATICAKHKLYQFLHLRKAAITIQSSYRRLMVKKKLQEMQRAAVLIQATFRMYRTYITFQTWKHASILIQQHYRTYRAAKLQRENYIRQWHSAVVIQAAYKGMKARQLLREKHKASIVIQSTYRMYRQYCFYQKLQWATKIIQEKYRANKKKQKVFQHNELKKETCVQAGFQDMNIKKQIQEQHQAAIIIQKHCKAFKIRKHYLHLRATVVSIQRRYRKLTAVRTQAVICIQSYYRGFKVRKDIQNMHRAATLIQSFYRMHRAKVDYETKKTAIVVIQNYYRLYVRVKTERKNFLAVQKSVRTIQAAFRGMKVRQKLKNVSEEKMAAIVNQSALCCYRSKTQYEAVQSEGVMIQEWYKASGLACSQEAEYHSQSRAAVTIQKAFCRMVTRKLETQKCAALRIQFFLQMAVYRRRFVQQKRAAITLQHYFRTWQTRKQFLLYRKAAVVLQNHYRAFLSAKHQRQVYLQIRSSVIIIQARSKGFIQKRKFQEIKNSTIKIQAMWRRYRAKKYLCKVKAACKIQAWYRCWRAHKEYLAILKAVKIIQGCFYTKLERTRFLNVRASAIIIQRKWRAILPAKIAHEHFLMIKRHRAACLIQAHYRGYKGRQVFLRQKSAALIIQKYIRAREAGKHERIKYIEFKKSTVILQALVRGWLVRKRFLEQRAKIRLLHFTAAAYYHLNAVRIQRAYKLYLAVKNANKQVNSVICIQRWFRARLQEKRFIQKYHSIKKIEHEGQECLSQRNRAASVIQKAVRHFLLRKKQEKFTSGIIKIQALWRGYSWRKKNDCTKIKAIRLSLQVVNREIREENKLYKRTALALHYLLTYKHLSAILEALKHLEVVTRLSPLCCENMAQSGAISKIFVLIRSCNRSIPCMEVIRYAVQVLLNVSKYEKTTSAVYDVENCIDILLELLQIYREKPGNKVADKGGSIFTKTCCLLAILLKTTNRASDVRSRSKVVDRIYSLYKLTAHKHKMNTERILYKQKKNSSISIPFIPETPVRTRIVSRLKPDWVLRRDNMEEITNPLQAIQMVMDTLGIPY
UniProt P49407: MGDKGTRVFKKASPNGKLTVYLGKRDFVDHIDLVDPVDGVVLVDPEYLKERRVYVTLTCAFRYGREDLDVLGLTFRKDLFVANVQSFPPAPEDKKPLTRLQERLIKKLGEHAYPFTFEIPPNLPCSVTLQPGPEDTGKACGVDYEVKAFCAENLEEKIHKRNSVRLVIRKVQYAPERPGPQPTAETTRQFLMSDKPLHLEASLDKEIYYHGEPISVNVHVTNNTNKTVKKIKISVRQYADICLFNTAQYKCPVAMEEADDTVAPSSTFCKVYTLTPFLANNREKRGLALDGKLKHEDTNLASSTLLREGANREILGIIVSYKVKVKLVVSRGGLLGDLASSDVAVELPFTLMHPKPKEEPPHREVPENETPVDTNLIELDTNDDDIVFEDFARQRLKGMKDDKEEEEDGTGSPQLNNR
UniProt O75964: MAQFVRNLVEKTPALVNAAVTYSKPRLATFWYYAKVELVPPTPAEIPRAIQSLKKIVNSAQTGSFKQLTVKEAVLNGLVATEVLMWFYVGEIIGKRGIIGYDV

These targets were tested with C[C@@H]1COCCN1C2=NC(=NC(=C2)C3(CC3)S(=O)(=O)C)C4=C5C=CNC5=CC=C4 (assay: log2 fold change, soluble protein after heating vs DMSO (PISA); higher = thermal stabilisation; K562 cells, 10 uM, 30 min; active = over 0.2 and 3.5 SD of the protein, either way, in both replicates (recomputed)).
Outline: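 Quantification of soluble protein used TMTpro 16plex LC-MS/MS, with channel sums equalised. Samples were the supernatant after 21,000xg for 90 min of pooled aliquots from K562 cells (2×10^6 cells/mL) treated with 10 μM compound for 30 min, heated for 3 min over 48°C-58°C, and extracted in PBS with 0.5% NP-40 at 4°C. Values, from duplicates, describe thermal stability against control samples on a log2 fold-change scale.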

log2 fold change, inactive:
ATG4C (UniProt Q96DT6) 0.016, ARL6IP5 (UniProt O75915) -0.025, ATE1 isoform 2 (UniProt O95260) -0.04, ATP5MPL (UniProt P56378) 0.029, ATP13A1 (UniProt Q9HD20) 0.045, ARNT (UniProt P27540) 0.054, ATP5PF isoform 2 (UniProt P18859) 0.057, ATP2A2 (UniProt P16615) 0.044, ARIH2 (UniProt O95376) 0.031, ATP7A isoform 3 (UniProt Q04656) 0.003, ATP5F1C (UniProt P36542) 0.059, ARMCX3 (UniProt Q9UH62) 0.113, ARL6IP1 (UniProt Q15041) 0.067, ASDURF (UniProt L0R819) -0.005, ATG12 (UniProt O94817) 0.062, ASNA1 (UniProt O43681) 0.021, ATP5PD (UniProt O75947) 0.094, ASMTL (UniProt O95671) 0.182, ATN1 (UniProt P54259) -0.08, ARL2 (UniProt P36404) 0.088, ASAP1 isoform 2 (UniProt Q9ULH1) -0.022, ATP6V0D1 (UniProt P61421) 0.006, ATP6V1D (UniProt Q9Y5K8) 0.032, ARPC5L (UniProt Q9BPX5) -0.015, ATP11C (UniProt Q8NB49) 0.026, ATP5F1E (UniProt P56381) -0.074, ATP5PO (UniProt P48047) -0.014, ASPM (UniProt Q8IZT6) 0.157, ATP11B (UniProt Q9Y2G3) 0.033, ATP6V1B2 (UniProt P21281) -0.05, ARL5A (UniProt Q9Y689) 0.097, ASF1B (UniProt Q9NVP2) -0.147, ARRB1 (UniProt P49407) 0.004, ATP5MG (UniProt O75964) 0.09, ARPC4 isoform 3 (UniProt P59998) 0.147, ATG13 isoform 5 (UniProt O75143) -0.015, ATPAF2 (UniProt Q8N5M1) 0.003
